Binding data for one molecule are collected here from paper PMC12864892.

Protein sequences, listed by entry. Tags and fused reporters are not part of them. Residues count along the entry.
UniProt P10909, residues 23-449: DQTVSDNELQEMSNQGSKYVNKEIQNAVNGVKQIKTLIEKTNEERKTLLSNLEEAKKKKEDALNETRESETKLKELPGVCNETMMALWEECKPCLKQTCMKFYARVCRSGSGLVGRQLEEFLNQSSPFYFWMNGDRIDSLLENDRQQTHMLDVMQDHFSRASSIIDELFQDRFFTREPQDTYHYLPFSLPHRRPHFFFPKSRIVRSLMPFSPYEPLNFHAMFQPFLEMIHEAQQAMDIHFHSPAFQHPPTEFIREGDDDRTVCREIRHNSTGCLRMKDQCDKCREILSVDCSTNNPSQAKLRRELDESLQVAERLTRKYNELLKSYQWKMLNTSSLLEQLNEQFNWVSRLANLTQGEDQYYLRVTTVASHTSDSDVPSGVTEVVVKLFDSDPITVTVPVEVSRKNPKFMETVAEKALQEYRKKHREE

Results are given in words; binding and its absence hold for the method and conditions named. Binding seen in cells or lysates may run through a third protein. Here binding means that the protein was enriched with, or labelled near, the bait; the list need not be complete.

The target in this test is clusterin (CLU), endogenous in TNBC cells (human (endogenous in MDA-MB-468 and MDA-MB-231)) (UniProt P10909). In words: affinity purification with mass spectrometry; Co-IP of CLU from MDA-MB-468 cells combined with mass spectrometry (CLU interactome).

B1: plakophilin 3 (PKP3), endogenous in TNBC cells (protein, UniProt Q9Y446 1-797)
chain: MQDGNFLLSALQPEAGVCSLALPSDLQLDRRGAEGPEAERLRAARVQEQVRARLLQLGQQPRHNGAAEPEPEAETARGTSRGQYHTLQAGFSSRSQGLSGDKTSGFRPIAKPAYSPASWSSRSAVDLSCSRRLSSAHNGGSAFGAAGYGGAQPTPPMPTRPVSFHERGGVGSRADYDTLSLRSLRLGPGGLDDRYSLVSEQLEPAATSTYRAFAYERQASSSSSRAGGLDWPEATEVSPSRTIRAPAVRTLQRFQSSHRSRGVGGAVPGAVLEPVARAPSVRSLSLSLADSGHLPDVHGFNSYGSHRTLQRLSSGFDDIDLPSAVKYLMASDPNLQVLGAAYIQHKCYSDAAAKKQARSLQAVPRLVKLFNHANQEVQRHATGAMRNLIYDNADNKLALVEENGIFELLRTLREQDDELRKNVTGILWNLSSSDHLKDRLARDTLEQLTDLVLSPLSGAGGPPLIQQNASEAEIFYNATGFLRNLSSASQATRQKMRECHGLVDALVTSINHALDAGKCEDKSVENAVCVLRNLSYRLYDEMPPSALQRLEGRGRRDLAGAPPGEVVGCFTPQSRRLRELPLAADALTFAEVSKDPKGLEWLWSPQIVGLYNRLLQRCELNRHTTEAAAGALQNITAGDRRWAGVLSRLALEQERILNPLLDRVRTADHHQLRSLTGLIRNLSRNARNKDEMSTKVVSHLIEKLPGSVGEKSPPAEVLVNIIAVLNNLVVASPIAARDLLYFDGLRKLIFIKKKRDSPDSEKSSRAASSLLANLWQYNKLHRDFRAKGYRKEDFLGP
For the molecule B1, the binding entry was “binds”.
